Test results from the supplement of paper PMC10849652.
The list shows a part of the results. Residues, ends and D or L forms follow the SMILES beside them. *: point of attachment. Cbz = O=C(OCc1ccccc1)*

By UniProt entry, the sequences of proteins in these tests, tags left out. Where a name states a change or a piece, a line headed by the entry shows the natural chain unless it says otherwise.
UniProt Q96E14: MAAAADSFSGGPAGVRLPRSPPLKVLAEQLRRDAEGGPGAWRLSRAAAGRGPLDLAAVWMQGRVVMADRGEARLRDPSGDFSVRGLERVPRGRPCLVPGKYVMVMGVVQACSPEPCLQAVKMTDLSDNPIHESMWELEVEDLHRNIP
UniProt Q86XS8: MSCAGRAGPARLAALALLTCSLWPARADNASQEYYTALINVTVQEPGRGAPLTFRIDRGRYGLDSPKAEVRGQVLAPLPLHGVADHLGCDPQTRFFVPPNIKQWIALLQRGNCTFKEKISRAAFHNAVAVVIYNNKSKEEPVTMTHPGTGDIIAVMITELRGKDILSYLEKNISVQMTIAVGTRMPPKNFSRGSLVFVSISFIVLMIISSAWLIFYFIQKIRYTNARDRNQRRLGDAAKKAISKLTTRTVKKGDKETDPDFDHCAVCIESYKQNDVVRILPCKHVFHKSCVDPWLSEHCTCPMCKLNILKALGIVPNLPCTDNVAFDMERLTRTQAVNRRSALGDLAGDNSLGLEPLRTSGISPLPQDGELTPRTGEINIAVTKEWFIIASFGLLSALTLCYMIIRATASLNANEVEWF
UniProt Q96LZ7: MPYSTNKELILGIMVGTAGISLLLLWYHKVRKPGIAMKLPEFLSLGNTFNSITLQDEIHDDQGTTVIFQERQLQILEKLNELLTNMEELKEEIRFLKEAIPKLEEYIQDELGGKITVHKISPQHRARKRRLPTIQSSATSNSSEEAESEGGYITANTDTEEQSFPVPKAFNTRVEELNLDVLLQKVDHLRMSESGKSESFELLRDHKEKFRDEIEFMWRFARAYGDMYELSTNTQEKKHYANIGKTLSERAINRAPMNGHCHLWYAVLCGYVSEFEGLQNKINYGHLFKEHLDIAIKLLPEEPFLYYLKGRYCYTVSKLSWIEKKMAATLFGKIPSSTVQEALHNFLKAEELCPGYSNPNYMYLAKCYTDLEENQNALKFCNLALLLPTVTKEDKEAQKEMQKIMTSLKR
UniProt P35251: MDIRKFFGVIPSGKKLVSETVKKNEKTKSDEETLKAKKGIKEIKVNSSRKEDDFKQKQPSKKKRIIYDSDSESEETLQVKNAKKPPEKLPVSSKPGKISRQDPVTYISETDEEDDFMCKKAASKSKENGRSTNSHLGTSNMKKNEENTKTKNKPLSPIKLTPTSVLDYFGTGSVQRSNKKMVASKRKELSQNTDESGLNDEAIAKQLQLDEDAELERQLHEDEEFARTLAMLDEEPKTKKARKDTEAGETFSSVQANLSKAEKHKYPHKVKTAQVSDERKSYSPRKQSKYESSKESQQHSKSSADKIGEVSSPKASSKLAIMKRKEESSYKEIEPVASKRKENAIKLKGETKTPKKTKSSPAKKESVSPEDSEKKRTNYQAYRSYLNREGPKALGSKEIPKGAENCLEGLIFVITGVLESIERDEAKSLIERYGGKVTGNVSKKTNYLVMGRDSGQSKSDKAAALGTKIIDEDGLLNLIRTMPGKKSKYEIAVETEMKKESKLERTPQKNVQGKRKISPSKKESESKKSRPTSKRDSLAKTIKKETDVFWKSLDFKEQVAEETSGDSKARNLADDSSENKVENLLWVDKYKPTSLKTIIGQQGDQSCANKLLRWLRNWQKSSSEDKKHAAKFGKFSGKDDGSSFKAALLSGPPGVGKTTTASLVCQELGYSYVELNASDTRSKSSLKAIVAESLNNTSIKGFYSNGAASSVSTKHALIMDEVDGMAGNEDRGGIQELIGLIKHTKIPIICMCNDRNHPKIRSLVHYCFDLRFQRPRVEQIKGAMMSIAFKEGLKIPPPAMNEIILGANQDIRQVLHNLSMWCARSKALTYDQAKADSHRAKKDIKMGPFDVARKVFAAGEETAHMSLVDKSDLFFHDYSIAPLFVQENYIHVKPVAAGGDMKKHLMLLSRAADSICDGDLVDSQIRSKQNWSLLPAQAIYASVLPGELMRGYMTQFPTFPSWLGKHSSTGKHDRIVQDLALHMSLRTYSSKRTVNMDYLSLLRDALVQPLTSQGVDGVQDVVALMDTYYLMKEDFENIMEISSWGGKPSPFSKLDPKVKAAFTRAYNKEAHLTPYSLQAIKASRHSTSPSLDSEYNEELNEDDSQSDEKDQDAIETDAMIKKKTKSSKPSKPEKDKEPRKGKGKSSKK
UniProt Q5EBL4: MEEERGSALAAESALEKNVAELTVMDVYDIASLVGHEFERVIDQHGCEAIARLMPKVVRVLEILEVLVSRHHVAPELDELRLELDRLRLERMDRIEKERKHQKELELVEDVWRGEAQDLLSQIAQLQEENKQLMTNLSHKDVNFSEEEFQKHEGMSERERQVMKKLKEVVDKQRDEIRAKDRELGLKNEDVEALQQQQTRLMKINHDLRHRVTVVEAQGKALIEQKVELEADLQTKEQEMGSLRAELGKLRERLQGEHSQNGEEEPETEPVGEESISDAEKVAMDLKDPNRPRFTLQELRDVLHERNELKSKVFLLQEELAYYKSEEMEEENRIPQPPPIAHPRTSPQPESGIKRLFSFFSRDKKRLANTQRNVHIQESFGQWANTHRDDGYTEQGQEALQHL
UniProt O14593: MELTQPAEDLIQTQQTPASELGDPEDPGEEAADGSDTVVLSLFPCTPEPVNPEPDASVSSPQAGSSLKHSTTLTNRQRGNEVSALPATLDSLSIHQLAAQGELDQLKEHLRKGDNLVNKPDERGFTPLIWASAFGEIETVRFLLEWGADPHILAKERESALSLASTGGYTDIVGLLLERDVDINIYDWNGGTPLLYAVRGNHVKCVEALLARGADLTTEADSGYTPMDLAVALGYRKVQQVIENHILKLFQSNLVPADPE
UniProt Q9H1E1: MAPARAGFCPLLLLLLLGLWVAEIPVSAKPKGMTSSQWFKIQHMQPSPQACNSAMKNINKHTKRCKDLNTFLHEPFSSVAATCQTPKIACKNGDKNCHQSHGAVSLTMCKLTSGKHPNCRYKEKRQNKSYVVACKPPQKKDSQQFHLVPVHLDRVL
UniProt O43567: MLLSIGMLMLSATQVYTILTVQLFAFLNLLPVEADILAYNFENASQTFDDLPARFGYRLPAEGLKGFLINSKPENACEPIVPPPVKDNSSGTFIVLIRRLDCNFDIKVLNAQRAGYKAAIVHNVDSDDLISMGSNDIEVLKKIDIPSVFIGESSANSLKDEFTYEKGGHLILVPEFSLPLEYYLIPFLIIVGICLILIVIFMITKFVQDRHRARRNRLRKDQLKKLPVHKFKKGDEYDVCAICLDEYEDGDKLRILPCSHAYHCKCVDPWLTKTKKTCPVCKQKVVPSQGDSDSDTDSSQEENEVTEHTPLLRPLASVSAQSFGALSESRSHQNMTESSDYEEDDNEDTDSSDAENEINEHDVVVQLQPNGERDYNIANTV
UniProt Q9ULI2: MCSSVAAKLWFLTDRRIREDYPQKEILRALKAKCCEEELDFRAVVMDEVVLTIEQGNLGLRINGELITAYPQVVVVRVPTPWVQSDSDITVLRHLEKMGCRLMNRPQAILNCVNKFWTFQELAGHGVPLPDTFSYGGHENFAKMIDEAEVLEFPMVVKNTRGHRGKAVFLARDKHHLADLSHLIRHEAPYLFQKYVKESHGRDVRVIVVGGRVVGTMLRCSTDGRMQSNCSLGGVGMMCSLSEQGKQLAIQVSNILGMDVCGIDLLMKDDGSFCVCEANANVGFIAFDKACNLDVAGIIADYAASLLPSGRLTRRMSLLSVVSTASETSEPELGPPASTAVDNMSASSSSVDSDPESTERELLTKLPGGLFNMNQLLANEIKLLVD
UniProt Q6ZNA4: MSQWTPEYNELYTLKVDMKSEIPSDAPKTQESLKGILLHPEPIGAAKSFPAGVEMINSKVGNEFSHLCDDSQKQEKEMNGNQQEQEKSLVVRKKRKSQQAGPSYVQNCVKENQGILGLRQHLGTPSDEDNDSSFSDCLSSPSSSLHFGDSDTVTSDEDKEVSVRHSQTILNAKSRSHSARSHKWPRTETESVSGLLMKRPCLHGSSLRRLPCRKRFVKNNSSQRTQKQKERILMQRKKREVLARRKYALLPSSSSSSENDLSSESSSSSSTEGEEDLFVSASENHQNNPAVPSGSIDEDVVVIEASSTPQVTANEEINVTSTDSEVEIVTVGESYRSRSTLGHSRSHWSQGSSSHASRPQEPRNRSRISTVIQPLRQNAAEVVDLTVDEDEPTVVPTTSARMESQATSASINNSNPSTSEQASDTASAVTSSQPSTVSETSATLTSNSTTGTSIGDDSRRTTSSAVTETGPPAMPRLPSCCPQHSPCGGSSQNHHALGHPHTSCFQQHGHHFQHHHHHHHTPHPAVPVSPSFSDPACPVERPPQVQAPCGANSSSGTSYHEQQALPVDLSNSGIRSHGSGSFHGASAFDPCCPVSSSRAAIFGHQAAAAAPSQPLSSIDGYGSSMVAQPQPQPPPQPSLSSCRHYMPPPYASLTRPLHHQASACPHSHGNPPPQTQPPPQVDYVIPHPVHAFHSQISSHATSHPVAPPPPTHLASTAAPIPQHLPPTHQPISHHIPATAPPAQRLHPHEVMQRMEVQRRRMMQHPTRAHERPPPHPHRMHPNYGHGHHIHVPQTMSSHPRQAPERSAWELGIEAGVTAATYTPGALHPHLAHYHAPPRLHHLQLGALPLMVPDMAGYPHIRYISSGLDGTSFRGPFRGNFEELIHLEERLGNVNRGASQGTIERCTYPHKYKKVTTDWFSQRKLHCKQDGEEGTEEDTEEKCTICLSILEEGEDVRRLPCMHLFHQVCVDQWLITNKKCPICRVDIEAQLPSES
UniProt Q9Y580: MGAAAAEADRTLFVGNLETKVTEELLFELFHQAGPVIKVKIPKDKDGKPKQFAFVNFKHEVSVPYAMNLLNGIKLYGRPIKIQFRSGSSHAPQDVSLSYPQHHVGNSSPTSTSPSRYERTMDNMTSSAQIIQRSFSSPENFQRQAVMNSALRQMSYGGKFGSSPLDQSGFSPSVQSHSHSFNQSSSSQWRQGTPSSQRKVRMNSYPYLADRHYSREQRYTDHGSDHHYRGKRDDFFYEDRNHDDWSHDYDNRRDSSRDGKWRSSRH
UniProt Q9Y225: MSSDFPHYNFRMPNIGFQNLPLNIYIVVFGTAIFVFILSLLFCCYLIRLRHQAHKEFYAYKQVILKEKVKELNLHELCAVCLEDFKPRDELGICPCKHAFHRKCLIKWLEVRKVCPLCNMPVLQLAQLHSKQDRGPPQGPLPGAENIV
UniProt Q15493: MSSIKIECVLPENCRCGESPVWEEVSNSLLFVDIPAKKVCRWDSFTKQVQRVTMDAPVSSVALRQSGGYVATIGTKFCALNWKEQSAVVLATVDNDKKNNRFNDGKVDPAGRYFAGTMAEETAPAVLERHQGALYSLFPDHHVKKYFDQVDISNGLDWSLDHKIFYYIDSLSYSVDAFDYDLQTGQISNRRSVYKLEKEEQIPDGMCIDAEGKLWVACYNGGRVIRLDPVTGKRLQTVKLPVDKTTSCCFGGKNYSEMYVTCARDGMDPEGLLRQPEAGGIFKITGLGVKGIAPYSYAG
UniProt Q969X0: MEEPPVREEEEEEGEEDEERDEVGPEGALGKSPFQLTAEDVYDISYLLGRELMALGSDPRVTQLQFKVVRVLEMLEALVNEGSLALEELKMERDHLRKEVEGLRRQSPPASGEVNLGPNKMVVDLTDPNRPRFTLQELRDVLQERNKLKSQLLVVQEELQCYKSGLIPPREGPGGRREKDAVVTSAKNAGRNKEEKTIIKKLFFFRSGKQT
UniProt Q05823: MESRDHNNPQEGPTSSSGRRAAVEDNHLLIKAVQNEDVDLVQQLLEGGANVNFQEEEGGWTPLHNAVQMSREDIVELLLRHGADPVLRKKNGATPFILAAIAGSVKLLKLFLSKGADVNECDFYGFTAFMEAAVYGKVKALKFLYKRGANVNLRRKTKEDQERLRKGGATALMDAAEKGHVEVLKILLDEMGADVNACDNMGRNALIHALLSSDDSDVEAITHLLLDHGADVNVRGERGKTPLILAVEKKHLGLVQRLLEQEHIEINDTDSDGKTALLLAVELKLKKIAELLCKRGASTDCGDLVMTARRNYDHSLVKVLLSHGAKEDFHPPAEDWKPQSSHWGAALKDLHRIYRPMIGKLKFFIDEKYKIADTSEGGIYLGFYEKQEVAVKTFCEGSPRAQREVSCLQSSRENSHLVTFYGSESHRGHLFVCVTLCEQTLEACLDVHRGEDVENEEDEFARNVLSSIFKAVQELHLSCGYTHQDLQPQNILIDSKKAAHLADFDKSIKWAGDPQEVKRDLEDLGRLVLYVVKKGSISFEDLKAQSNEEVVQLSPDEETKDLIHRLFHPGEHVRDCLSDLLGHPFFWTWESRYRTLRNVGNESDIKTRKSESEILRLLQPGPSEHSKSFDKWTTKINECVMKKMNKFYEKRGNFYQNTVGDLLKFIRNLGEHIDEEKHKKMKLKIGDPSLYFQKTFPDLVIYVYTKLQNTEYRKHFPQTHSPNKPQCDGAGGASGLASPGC
UniProt Q9Y3C5: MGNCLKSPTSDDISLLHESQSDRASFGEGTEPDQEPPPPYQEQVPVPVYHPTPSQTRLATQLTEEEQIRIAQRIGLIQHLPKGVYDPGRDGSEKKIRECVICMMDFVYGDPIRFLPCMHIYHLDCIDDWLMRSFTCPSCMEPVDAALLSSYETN

Key:
Assay in all cases: log2 fold change, soluble protein after heating vs DMSO (PISA); higher = thermal stabilisation; K562 cells, 10 uM, 30 min; active = over 0.2 and 3.5 SD of the protein, either way, in both replicates (recomputed)
[1] = compound: C1CCN(C1)C(=O)NC2=CC=CC(=C2)NC3=NC=C(C(=N3)NCCC4=CN=CN4)Br
Summary of the method: (§1)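 Thermal stability values are relative to control samples and come from duplicates. They are expressed as log2 fold changes. For measurement, K562 cells (2×10^6 cells/mL) received 10 μM compound for 30 min, and aliquots were heated for 3 min over 48°C-58°C, pooled, and extracted at 4°C in PBS with 0.5% NP-40. Soluble protein, the supernatant after 21,000xg for 90 min, was quantified by TMTpro 16plex LC-MS/MS with equalised channel sums.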

[2] = compound: C1CN(CCC1(CC2=CC=C(C=C2)Cl)N)C3=NC=NC4=C3C=CN4
Summary of the method: as §1

[3] = compound: CC1=C(C2=C(C=C1)C(=O)C3=CC=CC=C3N2CCCN)C
Summary of the method: as §1

erlotinib = compound: C#Cc1cccc(Nc2ncnc3cc(OCCOC)c(OCCOC)cc23)c1 [erlotinib]
Summary of the method: as §1

[4] = compound: C1=CC(=C(C=C1Cl)C2=NC3=NC=CN=C3C(=N2)NC4=CC=NC=C4)F
Summary of the method: as §1

[5] = compound: C1=CC(=CC=C1C2=NC3=C(N2)C=C(C=C3)C(=O)N)OC4=CC=C(C=C4)Cl
Summary of the method: as §1

[6] = compound: C1=CC2=NC=CN=C2C=C1/C=C/3\C(=O)NC(=O)S3
Summary of the method: as §1

[7] = compound: C1=CC=C(C=C1)C2=NC(=C(N2)C3=CC=NC=C3)C4=CC(=C(C=C4)Cl)O
Summary of the method: as §1

IRAK-1-4 Inhibitor I = compound: C1COCCN1CCN2C3=CC=CC=C3N=C2NC(=O)C4=CC(=CC=C4)[N+](=O)[O-] [IRAK-1-4 Inhibitor I]
Summary of the method: as §1

ibrutinib = compound: C=CC(=O)N1CCC[C@@H](n2nc(-c3ccc(Oc4ccccc4)cc3)c3c(N)ncnc32)C1 [ibrutinib]
Summary of the method: as §1

ralimetinib = compound: CC(C)(C)Cn1c(N)nc2ccc(-c3[nH]c(C(C)(C)C)nc3-c3ccc(F)cc3)nc21 [ralimetinib]
Summary of the method: as §1

[8] = compound: CC(C)(O)CC(=O)NCCn1ccc2ncnc(Nc3ccc(Oc4cccc(C(F)(F)F)c4)c(Cl)c3)c21
Summary of the method: as §1

[9] = compound: CC(C)C1=C2N=C(C=C(N2N=C1)NCC3=CC=CC=C3)NCCCCCCN
Summary of the method: as §1

[10] = compound: CC(C)C[C@@H](C=O)NC(=O)[C@H](CC(C)C)NC(=O)[C@H](CC(C)C)NC(=O)OCc1ccccc1
Summary of the method: as §1

pinometostat = compound: CC(C)N(C[C@H]1O[C@@H](n2cnc3c(N)ncnc32)[C@H](O)[C@@H]1O)[C@H]1C[C@@H](CCc2nc3cc(C(C)(C)C)ccc3[nH]2)C1 [pinometostat]
Summary of the method: as §1

[11] = compound: CC1=C(C(CC(=O)N1)C2=CC=C(C=C2)C(F)(F)F)C(=O)NC3=C(C=C4C(=C3)C=NN4)F
Summary of the method: as §1

[12] = compound: C/C(=N\NC(=O)C1=CC(=CC=C1)S(=O)(=O)N2CCOCC2)/C3=C(C=CC(=C3)Cl)O
Summary of the method: as §1

[13] = compound: C1=CC2=C(C=CC(=C2)/C=C\3/C(=O)NC(=NCC4=CC=CS4)S3)N=C1
Summary of the method: as §1

[14] = compound: C1=CC=C2C(=C1)C3=NNC4=CC=CC(=C43)C2=O
Summary of the method: as §1

[15] = compound: CC(=O)c1cnc2ccc(-c3cc(Cl)c(O)c(Cl)c3)nc2c1N[C@H]1CC[C@H](CN(C)C)CC1
Summary of the method: as §1

Measured: log2 fold change

RNF169 (UniProt Q8NCN4)
inactive: [1] -0.04 | [2] -0.007 | [3] 0.152

RHBDD1 (UniProt Q8TEB9)
inactive: erlotinib 0.039 | [4] 0.037 | [5] 0.029 | [6] 0.083 | [7] 0.006 | IRAK-1-4 Inhibitor I 0.113 | ibrutinib 0.013 | ralimetinib 0.113 | [8] -0.085 | [9] -0.052 | [10] -0.077 | pinometostat 0 | [11] -0.099

RIC8B isoform 1 (UniProt Q9NVN3)
inactive: erlotinib 0.095 | [4] -0.135 | [5] 0.086 | IRAK-1-4 Inhibitor I 0.15 | [8] -0.187 | [9] -0.143 | pinometostat -0.025

RMI2 (UniProt Q96E14)
inactive: [12] -0.174 | [13] 0.129 | [7] 0.306 | [14] 0.13 | [1] -0.075 | [2] -0.081 | [15] 0.062 | ralimetinib -0.094 | [10] 0.114 | [3] 0.099

RNF130 (UniProt Q86XS8)
inactive: erlotinib 0.047 | [5] 0.054 | [6] -0.107 | IRAK-1-4 Inhibitor I 0.001 | ibrutinib -0.24 | [9] 0.04 | pinometostat -0.041

RBM6 (UniProt P78332)
inactive: [12] 0.019 | [13] 0.036 | [14] -0.1 | [1] 0.048 | [2] 0.018 | IRAK-1-4 Inhibitor I 0.146 | [15] -0.208 | pinometostat -0.09 | [3] -0.16

RNF170 (UniProt Q96K19)
inactive: [12] -0.044 | [4] 0.1 | [13] 0.103 | [6] -0.002 | [7] 0.082 | [14] -0.053 | IRAK-1-4 Inhibitor I -0.061 | ibrutinib -0.004 | [15] -0.15 | ralimetinib -0.016 | [8] -0.111 | [10] 0.033 | pinometostat 0.096 | [11] -0.081

RFX3 (UniProt P48380)
inactive: erlotinib -0.081 | [5] 0.126 | [6] -0.024 | ibrutinib -0.174 | [9] -0.035

Reprinted at random: 3 records from the list.
RFX3 (UniProt P48380)
inactive: erlotinib -0.081 | [5] 0.126 | [6] -0.024 | ibrutinib -0.174 | [9] -0.035

RIC8B isoform 1 (UniProt Q9NVN3)
inactive: erlotinib 0.095 | [4] -0.135 | [5] 0.086 | IRAK-1-4 Inhibitor I 0.15 | [8] -0.187 | [9] -0.143 | pinometostat -0.025

RBM6 (UniProt P78332)
inactive: [12] 0.019 | [13] 0.036 | [14] -0.1 | [1] 0.048 | [2] 0.018 | IRAK-1-4 Inhibitor I 0.146 | [15] -0.208 | pinometostat -0.09 | [3] -0.16

The results go on.

RCL1 (UniProt Q5VZU2)
inactive: [12] -0.186 | [4] -0.246 | [13] 0.379 | [7] -0.04 | [14] 0.23 | [1] 0.163 | [2] -0.023 | [15] -0.05 | ralimetinib -0.127 | [8] -0.082 | [10] 0.047 | [3] -0.089

RMDN2 isoform 2 (UniProt Q96LZ7)
inactive: [7] 0.088 | IRAK-1-4 Inhibitor I 0.034 | ralimetinib 0.095 | [10] 0.137 | pinometostat 0.025

RNF141 (UniProt Q8WVD5)
inactive: erlotinib 0.026 | [5] -0.051 | [6] 0.112 | [7] -0.04 | [1] -0.035 | [2] -0.048 | IRAK-1-4 Inhibitor I 0.016 | ibrutinib -0.042 | ralimetinib 0.018 | [9] 0.092 | [10] 0.002 | pinometostat -0.073 | [11] 0.076 | [3] -0.066

RFC1 (UniProt P35251)
inactive: [12] -0.309 | [13] -0.039 | [7] 0.233 | [14] 0.02 | [1] 0.079 | [2] -0.109 | [15] 0.071 | ralimetinib 0.1 | [10] 0.173 | [3] 0.263

RILPL1 (UniProt Q5EBL4)
inactive: erlotinib 0.094 | [4] -0.005 | [5] 0.152 | [7] -0.151 | [1] 0.059 | [2] -0.211 | IRAK-1-4 Inhibitor I 0.036 | ralimetinib -0.111 | [8] -0.075 | [9] -0.211 | [10] 0.144 | pinometostat 0.03 | [3] -0.047

RFXANK (UniProt O14593)
inactive: [4] 0.041 | [8] -0.198

RNASE7 (UniProt Q9H1E1)
inactive: [12] 0.244 | [13] 0.544 | [14] -0.357 | [15] -0.272

RIF1 (UniProt Q5UIP0)
inactive: erlotinib 0.169 | [4] -0.124 | [5] -0.141 | [7] -0.21 | [1] 0.165 | [2] -0.001 | ralimetinib 0.092 | [8] 0.15 | [9] -0.349 | [10] 0.27 | [11] 0.015 | [3] 0.1

RNF220 isoform 3 (UniProt Q5VTB9)
inactive: erlotinib -0.109 | [12] -0.021 | [5] 0.229 | [13] -0.05 | [14] -0.055 | [15] 0.086 | [9] 0.056

RHD (UniProt Q02161)
inactive: erlotinib -0.07 | [12] 0.036 | [5] -0.05 | [13] 0.106 | [14] -0.148 | [1] -0.017 | [2] 0.008 | IRAK-1-4 Inhibitor I -0.018 | [15] 0.003 | [9] -0.059 | pinometostat -0.031 | [11] -0.08 | [3] 0.055

RNF13 (UniProt O43567)
inactive: [12] -0.1 | [4] 0.027 | [13] -0.046 | [6] 0.031 | [14] -0.021 | [1] 0.004 | [2] -0.011 | IRAK-1-4 Inhibitor I 0.098 | ibrutinib -0.059 | [15] 0.005 | [8] 0.08 | pinometostat 0.051 | [3] 0.093

RIMKLB (UniProt Q9ULI2)
inactive: erlotinib -0.25 | [4] -0.234 | [5] -0.02 | [6] -0.133 | IRAK-1-4 Inhibitor I 0.033 | ibrutinib -0.164 | [8] 0.259 | [9] -0.038 | pinometostat -0.019 | [11] -0.005

RNF111 isoform 3 (UniProt Q6ZNA4)
inactive: erlotinib 0.057 | [5] -0.011 | IRAK-1-4 Inhibitor I 0.105 | [9] -0.092 | pinometostat 0.202 | [11] -0.009

RBM7 (UniProt Q9Y580)
inactive: erlotinib -0.048 | [4] -0.109 | [5] -0.048 | [7] 0.179 | [1] -0.052 | [2] -0.118 | ralimetinib 0.077 | [8] -0.098 | [9] -0.025 | [10] -0.14 | [11] 0.032 | [3] 0.23

RNF24 isoform 2 (UniProt Q9Y225)
inactive: erlotinib -0.062 | [4] -0.015 | [5] -0.019 | [6] 0.007 | [7] 0.147 | IRAK-1-4 Inhibitor I -0.076 | ibrutinib -0.095 | ralimetinib 0.036 | [8] -0.242 | [9] 0.019 | [10] -0.068 | pinometostat 0.014 | [11] 0.153

RIT1 isoform 3 (UniProt Q92963)
inactive: erlotinib -0.002 | [4] -0.05 | [5] -0.211 | IRAK-1-4 Inhibitor I -0.049 | [8] 0.099 | [9] 0.366 | pinometostat -0.127

RGN (UniProt Q15493)
inactive: [12] 0.094 | [13] -0.302 | [14] -0.002 | [1] 0.33 | [2] 0.144 | [15] 0.047 | [11] -0.064 | [3] -0.121

RNF166 (UniProt Q96A37)
inactive: erlotinib 0.05 | [12] -0.153 | [5] -0.105 | [13] -0.116 | [7] 0.103 | [14] -0.056 | [1] 0.051 | [2] 0.085 | [15] 0.107 | ralimetinib 0.027 | [9] 0.092 | [10] 0.039 | [3] -0.05

RHOXF2B (UniProt P0C7M4)
inactive: [12] 0.02 | [13] 0.062 | [14] -0.027 | [15] -0.052

RNF115 (UniProt Q9Y4L5)
inactive: [11] 0.115

RNF139 (UniProt Q8WU17)
inactive: erlotinib 0.015 | [4] 0.069 | [5] 0.017 | [6] 0.057 | [7] 0.014 | [1] 0.082 | [2] -0.067 | IRAK-1-4 Inhibitor I 0.013 | ibrutinib -0.073 | ralimetinib 0.015 | [8] 0.024 | [9] -0.026 | [10] -0.035 | pinometostat -0.027 | [11] 0.003 | [3] 0.056

RLIM (UniProt Q9NVW2)
inactive: [12] -0.598 | [13] 0.109 | [7] 0.017 | [14] -0.049 | [1] 0.171 | [2] 0.103 | [15] 0.13 | ralimetinib 0.215 | [10] -0.024 | [3] 0.067

RILPL2 (UniProt Q969X0)
inactive: [4] -0.045 | [8] 0

RNASEL (UniProt Q05823)
inactive: [7] -0.232 | ralimetinib 0.183 | [10] 0.372

RNF11 (UniProt Q9Y3C5)
inactive: [7] 0.085 | IRAK-1-4 Inhibitor I 0.047 | ralimetinib -0.065 | [10] 0.149 | pinometostat -0.014

RBMY1E (UniProt A6NEQ0)
inactive: erlotinib -0.238 | [5] 0.06 | [6] -0.003 | [7] -0.044 | [1] -0.072 | [2] -0.099 | IRAK-1-4 Inhibitor I 0.019 | ibrutinib -0.024 | ralimetinib 0.131 | [9] 0.134 | [10] 0.141 | pinometostat -0.032 | [3] -0.01
